Values from PubChem BioAssay AID1259254 (NCATS, 2017).

- Screen: 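Gene knock-downs that lead to re-replication, shown by excess G2 DNA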 (primary screen)
- Cell system: human HCT116 colorectal cancer cells
- Knock-down reagent: single siRNA against human genes
- Duration: 3 days
- Detection: 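Nuclei stained with Hoechst and imaged; cell-cycle phase assigned by DNA content; G2 share scaled per plate, non-targeting siRNA 0%, GMNN siRNA 100%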
- Scale: G2 robust z-score and G2 cells, % of GMNN control: higher = more G2 cells, more excess DNA replication; raw share of cells in G2: higher = larger share of cells with G2 DNA content
- Call rule: 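Active siRNAs have a G2 robust z of 5 or more median absolute deviations over the median, which in these data means about 38% or higher of GMNN control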
Shown is a random part of about 59,000 deposited reagents. About 1,550 of all reagents (2.6%) count as active. 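G2 share is only a proxy for re-replication; each gene was hit by three separate siRNAs, and active genes were retested.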 Raw values are not corrected between plates. Reagents against one gene are numbered here. The record does not give: the amount of reagent.

no.	gene	siRNA no.	G2 robust z-score	G2 cells, % of GMNN control	raw share of cells in G2 (%)	Call
1	SPTA1	1	2.34	19.4	13.7	inactive
2	SPTA1	2	-0.99	-4	2.31	inactive
3	SPTA1	3	1	10	6.89	inactive
4	LOC390282	1	-0.44	-0.126	3.73	inactive
5	LOC390282	2	-0.46	-0.266	3.29	inactive
6	LOC390282	3	-0.139	1.99	5.49	inactive
7	ZNF589	1	-0.21	1.49	3.32	inactive
8	ZNF589	2	0.127	3.86	7.65	inactive
9	ZNF589	3	-0.0981	2.28	4.35	inactive
10	SLC17A3	1	-1.7	-8.99	2.93	inactive
11	SLC17A3	2	1.33	12.4	11.1	inactive
12	SLC17A3	3	0.361	5.51	5.62	inactive
13	BTG1	1	3.99	31.1	19.9	inactive
14	BTG1	2	-0.492	-0.495	3.91	inactive
15	BTG1	3	-0.506	-0.593	3.29	inactive

Individual results from the list.
Value for ZNF589 #2 in “G2 cells, % of GMNN control”: 3.86
For “Call”, SLC17A3 #2 shows inactive
SLC17A3 #1, G2 cells, % of GMNN control → -8.99
LOC390282 #1, Call → inactive
Result of BTG1 #2 under “G2 cells, % of GMNN control”: -0.495

Continued.
no.	gene	siRNA no.	G2 robust z-score	G2 cells, % of GMNN control	raw share of cells in G2 (%)	Call
16	WDR12	1	2.17	18.2	11.5	inactive
17	WDR12	2	0.367	5.55	6.44	inactive
18	WDR12	3	-0.755	-2.34	2.39	inactive
19	STARD3NL	1	-0.644	-1.56	1.93	inactive
20	STARD3NL	2	2.47	20.3	10.9	inactive
21	STARD3NL	3	0.603	7.21	5.59	inactive
22	FNDC4	1	0.371	5.58	7.01	inactive
23	FNDC4	2	-0.426	-0.0274	4.6	inactive
24	FNDC4	3	-0.311	0.783	2.9	inactive
25	DAD1	1	-1.34	-6.48	1.86	inactive
26	DAD1	2	-0.656	-1.65	4.39	inactive
27	DAD1	3	-0.39	0.221	5.04	inactive
28	LINC02898	1	0.807	8.65	8.38	inactive
29	LINC02898	2	0.0306	3.18	4.97	inactive
30	LINC02898	3	4.14	32.1	16.3	inactive
